Experimental data reported in PubChem BioAssay AID330 (DTP/NCI, 2004).
The list shows only some results of the screen, not a fair sample: it is rich in T/C values a quarter to a half above the control, in often repeated tests (any T/C) and in doses without a T/C. Further doses and runs are listed elsewhere. T/C is the treated group as % of the vehicle group. Some doses have a count of surviving animals in place of a T/C: the source holds a T/C of zero for them, seemingly a mark for toxic or unscored doses. Some survivor counts are full or nearly so, which does not show that the dose was tolerated: survival well below the control is almost never listed, so the zero probably covers shortened survival too. Survivors were counted at the toxicity check, usually on the fifth day, unless a day is given; later deaths do not show. Schedule codes are those of the source, taken here to give the interval after Q, in days (D) or hours (H), and the number of doses after X. For survival time, the PubChem record calls one and a half times the control and up active, and a quarter to a half above the control has no call in these data; cut-offs in other NCI protocols can differ. Some doses were run more than once; the values are given in rising order. Some T/C values carry the count of animals alive at the toxicity check (mostly the fifth day); where none is given, no animal had died by that day.

Tested on: P388 leukemia ip, CD2F1 mice, survival T/C
Experiment: NCI In Vivo Anticancer Drug Screen. Data for tumor model P388 Leukemia (intraperitoneal) in CD2F1 (CDF1) mice
Settings: T/C endpoint: median survival time, higher T/C = longer survival
[1] = dose: 200.0 mg/kg/injection, schedule: Q01DX009 (ip), vehicle: other

CO[C@H]1C[C@@H]2CC[C@@H](C)[C@@](O)(O2)C(=O)C(=O)N2CCCC[C@H]2C(=O)O[C@H]([C@H](C)C[C@@H]2CC[C@@H](O)[C@H](OC)C2)CC(=O)[C@H](C)C=C(C)[C@@H](O)[C@@H](OC)C(=O)[C@H](C)C[C@H](C)/C=C/C=C/C=C1C
T/C (dose: 6.25 mg/kg/injection, schedule: Q01DX005 (ip), vehicle: clinical formulation): 131 % of control | T/C (dose: 6.25 mg/kg/injection, schedule: Q01DX009 (ip), vehicle: clinical formulation): 141 % of control | T/C (dose: 12.5 mg/kg/injection, schedule: Q01DX005 (ip), vehicle: clinical formulation): 128 % of control | T/C (dose: 12.5 mg/kg/injection, schedule: Q01DX009 (ip), vehicle: clinical formulation): 141 % of control | T/C (dose: 12.5 mg/kg/injection, schedule: Q01DX009 (ip), vehicle: gum acacia): 139 % of control | T/C (dose: 12.5 mg/kg/injection, schedule: Q01DX009 (ip), vehicle: saline with Tween-80, evaluated on day 30): 136 % of control | T/C (dose: 12.5 mg/kg/injection, schedule: Q01DX009 (ip), vehicle: saline with Tween-80, evaluated on day 60): 127 % of control | T/C (dose: 25.0 mg/kg/injection, schedule: Q01DX005 (ip), vehicle: clinical formulation): 137 % of control | T/C (dose: 25.0 mg/kg/injection, schedule: Q01DX009 (ip), vehicle: clinical formulation): 135 % of control | T/C (dose: 25.0 mg/kg/injection, schedule: Q01DX009 (ip), vehicle: gum acacia): 130 % of control | T/C (dose: 25.0 mg/kg/injection, schedule: Q01DX009 (ip), vehicle: saline with Tween-80, evaluated on day 30): 136 % of control | T/C (dose: 25.0 mg/kg/injection, schedule: Q01DX009 (ip), vehicle: saline with Tween-80, evaluated on day 60): 133 % of control | T/C (dose: 50.0 mg/kg/injection, schedule: Q01DX005 (ip), vehicle: clinical formulation): 134 % of control | T/C (dose: 50.0 mg/kg/injection, schedule: Q01DX009 (ip), vehicle: clinical formulation): 146 % of control | T/C (dose: 50.0 mg/kg/injection, schedule: Q01DX009 (ip), vehicle: gum acacia): 135 % of control | T/C (dose: 50.0 mg/kg/injection, schedule: Q01DX009 (ip), vehicle: saline with Tween-80, evaluated on day 30): 140 % of control | T/C (dose: 50.0 mg/kg/injection, schedule: Q01DX009 (ip), vehicle: saline with Tween-80, evaluated on day 60): 131 % of control | survivor count (dose: 100.0 mg/kg/injection, schedule: Q01DX005 (iv), vehicle: clinical formulation): 0 of 10 | T/C (dose: 100.0 mg/kg/injection, schedule: Q01DX009 (ip), vehicle: clinical formulation): 146 % of control | T/C (dose: 100.0 mg/kg/injection, schedule: Q01DX009 (ip), vehicle: gum acacia): 134 % of control | T/C (dose: 100.0 mg/kg/injection, schedule: Q01DX009 (ip), vehicle: saline with Tween-80, evaluated on day 30): 134 % of control | T/C (dose: 100.0 mg/kg/injection, schedule: Q01DX009 (ip), vehicle: saline with Tween-80, evaluated on day 60): 136 % of control | T/C (dose: 200.0 mg/kg/injection, schedule: Q01DX001 (ip), vehicle: saline with Tween-80): 142 % of control | survivor count (dose: 200.0 mg/kg/injection, schedule: Q01DX001 (iv), vehicle: clinical formulation): 0 of 10 | survivor count (dose: 200.0 mg/kg/injection, schedule: Q01DX005 (ip), vehicle: clinical formulation): 1 of 10 | survivor count (dose: 200.0 mg/kg/injection, schedule: Q01DX005 (iv), vehicle: clinical formulation): 0 of 10 | survivor count (dose: 200.0 mg/kg/injection, schedule: Q01DX009 (ip), vehicle: clinical formulation): 2 of 10 | T/C (dose: 200.0 mg/kg/injection, schedule: Q01DX009 (ip), vehicle: gum acacia): 141 % of control | T/C (dose: 200.0 mg/kg/injection, schedule: Q01DX009 (ip), vehicle: saline with Tween-80): 128 % of control | T/C (dose: 400.0 mg/kg/injection, schedule: Q01DX001 (ip), vehicle: saline with Tween-80): 128 and 136 % of control | T/C (dose: 400.0 mg/kg/injection, schedule: Q01DX009 (ip), vehicle: gum acacia): 129 % of control | T/C (dose: 400.0 mg/kg/injection, schedule: Q01DX009 (ip), vehicle: saline with Tween-80, evaluated on day 30): 138 % of control | T/C (dose: 400.0 mg/kg/injection, schedule: Q01DX009 (ip), vehicle: saline with Tween-80, evaluated on day 60): 125 % of control | T/C (dose: 600.0 mg/kg/injection, schedule: Q01DX001 (ip), vehicle: saline with Tween-80): 136 % of control | T/C (dose: 800.0 mg/kg/injection, schedule: Q01DX001 (ip), vehicle: saline with Tween-80): 128 and 136 % of control | T/C (dose: 1600.0 mg/kg/injection, schedule: Q01DX001 (ip), vehicle: saline with Tween-80): 133 % of control

COc1cc2c(cc1OC)-c1c(O)c(OC)cc3c1C(C2)N(C)CC3 (configuration not stated)
T/C (dose: 4.5 mg/kg/injection, schedule: Q01DX009 (ip), vehicle: Klucel (hydroxypropylcellulose) (HPC)): 127 % of control

Cn1nccc1N
survivor count (dose: 100.0 mg/kg/injection, schedule: Q01DX009 (ip), vehicle: saline): 1 of 6 | survivor count (dose: 200.0 mg/kg/injection, schedule: Q01DX009 (ip), vehicle: saline): 0 of 6

CCC[CH2][Sn]([F])([CH2]CCC)[O][Sn]([F])([CH2]CCC)[CH2]CCC
survivor count (dose: 400.0 mg/kg/injection, schedule: Q04DX003 (ip), vehicle: saline): 4 of 6

O=C1c2ccccc2C(=O)c2c(NCCNCCO)ccc(NCCO)c21
T/C (dose: 10.0 mg/kg/injection, schedule: Q04DX002 (ip), vehicle: saline): 125 % of control | T/C (dose: 20.0 mg/kg/injection, schedule: Q04DX002 (ip), vehicle: saline): 142 % of control | T/C (dose: 40.0 mg/kg/injection, schedule: Q04DX002 (ip), vehicle: saline): 127 % of control | T/C (dose: 80.0 mg/kg/injection, schedule: Q04DX002 (ip), vehicle: saline): 144 % of control

CC[As](CC)SC1OC(C2COC(C)(C)O2)C2OC(C)(C)OC12 (configuration not stated)
survivor count (dose: 100.0 mg/kg/injection, schedule: Q01DX009 (ip), vehicle: distilled water + Tween-80): 4 of 6 | survivor count (dose: 200.0 mg/kg/injection, schedule: Q01DX009 (ip), vehicle: distilled water + Tween-80): 0 of 6

CCSC(=O)/C=C\C=[N+](/[O-])OC
survivor count [1]: 1 of 6

CC(=O)C[n+]1cccc(C)c1Sc1ccccc1
survivor count (dose: 100.0 mg/kg/injection, schedule: Q01DX005 (ip), vehicle: saline with Tween-80): 0 of 5 | survivor count (dose: 200.0 mg/kg/injection, schedule: Q01DX005 (ip), vehicle: saline with Tween-80): 0 of 5

CC(C)COC(=O)N(CCF)N=O
T/C (dose: 2.5 mg/kg/injection, schedule: Q01DX009 (ip), vehicle: saline with Tween-80): 126 % of control | T/C (dose: 5.0 mg/kg/injection, schedule: Q01DX009 (ip), vehicle: saline with Tween-80): 128 % of control | survivor count (dose: 10.0 mg/kg/injection, schedule: Q01DX009 (ip), vehicle: saline with Tween-80): 6 of 6 | survivor count (dose: 20.0 mg/kg/injection, schedule: Q01DX009 (ip), vehicle: saline with Tween-80): 0 of 6

Nc1cc2c(cn1)[nH]c1ccccc12
survivor count [1]: 1 of 4 | survivor count (dose: 240.0 mg/kg/injection, schedule: Q01DX005 (ip), vehicle: saline with Tween-80): 0 of 6

O=c1c2cccc3cccc(c32)c2nc3ccccc3n12
T/C (dose: 6.25 mg/kg/injection, schedule: Q01DX009 (ip), vehicle: saline with Tween-80): 130 % of control | T/C (dose: 9.4 mg/kg/injection, schedule: Q01DX009 (ip), vehicle: saline with Tween-80): 129 % of control | T/C (dose: 12.5 mg/kg/injection, schedule: Q01DX009 (ip), vehicle: saline with Tween-80): 126 % of control

CNC(=O)CC(N)C(=O)O (configuration not stated)
T/C (dose: 400.0 mg/kg/injection, schedule: Q01DX009 (ip), vehicle: saline): 125 % of control

CCC(C)N(C(=O)c1ccccc1)c1ccccc1 (configuration not stated)
T/C (dose: 50.0 mg/kg/injection, schedule: Q01DX009 (ip), vehicle: other): 128 % of control [5 of 6 alive] | survivor count (dose: 100.0 mg/kg/injection, schedule: Q01DX009 (ip), vehicle: other): 2 of 6 | survivor count (dose: 100.0 mg/kg/injection, schedule: Q01DX009 (ip), vehicle: saline + Tween-80 + alcohol): 3 of 6
